Measurements reported in PubChem BioAssay AID1259254 (NCATS, 2017).
The whole screen tested about 59,000 reagents; shown is a part drawn at random. About 1,550 of all reagents (2.6%) were called active. 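G2 share is only a proxy for re-replication; each gene was hit by three separate siRNAs, and active genes were retested.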 The numbers tell different reagents against one gene apart. Not all columns of the deposit are shown. No sequences are given here. The record does not give: the amount of reagent.

Assay: 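Gene knock-downs that lead to re-replication, shown by excess G2 DNA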 (primary screen)
Cells: human HCT116 colorectal cancer cells
Reagent: single siRNA against human genes
Timing: 3 days
Read-out: 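Nuclei stained with Hoechst and imaged; cell-cycle phase assigned by DNA content; G2 share scaled per plate, non-targeting siRNA 0%, GMNN siRNA 100%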
Scale: G2 robust z-score and G2 cells, % of GMNN control: higher = more G2 cells, more excess DNA replication
Rule for the call: 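Active siRNAs have a G2 robust z of 5 or more median absolute deviations over the median, which in these data means about 38% or higher of GMNN control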

SERPINB11 #1 | G2 robust z-score = 2.39; G2 cells, % of GMNN control = 19.8; call = inactive
SERPINB11 #2 | G2 robust z-score = 0.0646; G2 cells, % of GMNN control = 3.42; call = inactive
SERPINB11 #3 | G2 robust z-score = -1.34; G2 cells, % of GMNN control = -6.47; call = inactive
FAM110C #1 | G2 robust z-score = -0.879; G2 cells, % of GMNN control = -3.22; call = inactive
FAM110C #2 | G2 robust z-score = -0.792; G2 cells, % of GMNN control = -2.6; call = inactive
FAM110C #3 | G2 robust z-score = 0.239; G2 cells, % of GMNN control = 4.65; call = inactive
OR2AG1 #1 | G2 robust z-score = 1.88; G2 cells, % of GMNN control = 16.2; call = inactive
OR2AG1 #2 | G2 robust z-score = -0.703; G2 cells, % of GMNN control = -1.98; call = inactive
OR2AG1 #3 | G2 robust z-score = 0.351; G2 cells, % of GMNN control = 5.43; call = inactive
COL5A3 #1 | G2 robust z-score = -0.417; G2 cells, % of GMNN control = 0.0353; call = inactive
COL5A3 #2 | G2 robust z-score = 1.46; G2 cells, % of GMNN control = 13.3; call = inactive
COL5A3 #3 | G2 robust z-score = 0.919; G2 cells, % of GMNN control = 9.43; call = inactive
KRTAP23-1 #1 | G2 robust z-score = 0.0827; G2 cells, % of GMNN control = 3.55; call = inactive
KRTAP23-1 #2 | G2 robust z-score = 8.63; G2 cells, % of GMNN control = 63.7; call = active
KRTAP23-1 #3 | G2 robust z-score = -0.749; G2 cells, % of GMNN control = -2.3; call = inactive
JADE3 #1 | G2 robust z-score = 0.426; G2 cells, % of GMNN control = 5.96; call = inactive
JADE3 #2 | G2 robust z-score = -0.253; G2 cells, % of GMNN control = 1.19; call = inactive
JADE3 #3 | G2 robust z-score = -1.32; G2 cells, % of GMNN control = -6.34; call = inactive

Not a retest: entries from further up.
COL5A3 #3 | G2 robust z-score = 0.919; G2 cells, % of GMNN control = 9.43; call = inactive
KRTAP23-1 #1 | G2 robust z-score = 0.0827; G2 cells, % of GMNN control = 3.55; call = inactive
KRTAP23-1 #2 | G2 robust z-score = 8.63; G2 cells, % of GMNN control = 63.7; call = active
